Assay [1] deals with T1, 6Myc-IDL1 (Arabidopsis thaliana) (UniProt Q9SYQ0).
T1 sequence: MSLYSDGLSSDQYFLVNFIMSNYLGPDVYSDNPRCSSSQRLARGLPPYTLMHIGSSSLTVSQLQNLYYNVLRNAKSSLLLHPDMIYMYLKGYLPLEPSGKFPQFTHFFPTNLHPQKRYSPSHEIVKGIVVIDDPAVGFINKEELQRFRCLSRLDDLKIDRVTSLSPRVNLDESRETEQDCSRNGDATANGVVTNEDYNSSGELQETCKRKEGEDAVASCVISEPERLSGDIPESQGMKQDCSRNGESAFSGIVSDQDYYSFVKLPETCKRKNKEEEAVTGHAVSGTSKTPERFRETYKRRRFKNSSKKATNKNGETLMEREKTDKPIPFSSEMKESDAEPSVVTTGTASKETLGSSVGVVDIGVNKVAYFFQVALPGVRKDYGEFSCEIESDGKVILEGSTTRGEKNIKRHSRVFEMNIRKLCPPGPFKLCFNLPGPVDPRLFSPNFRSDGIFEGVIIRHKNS
In words: affinity purification with mass spectrometry; 6Myc-IDL1 purified from Arabidopsis flower extract on anti-c-Myc agarose, eluted with 0.1 M ammonium hydroxide; lysis buffer 50 mM Tris pH 8.0, 230 mM NaCl, 0.2% NP-40; 4°C; LC-MS/MS.

Assay [2] has as its target T2, 6Myc-IDM2 (Arabidopsis thaliana) (UniProt Q8RWL4).
T2 sequence: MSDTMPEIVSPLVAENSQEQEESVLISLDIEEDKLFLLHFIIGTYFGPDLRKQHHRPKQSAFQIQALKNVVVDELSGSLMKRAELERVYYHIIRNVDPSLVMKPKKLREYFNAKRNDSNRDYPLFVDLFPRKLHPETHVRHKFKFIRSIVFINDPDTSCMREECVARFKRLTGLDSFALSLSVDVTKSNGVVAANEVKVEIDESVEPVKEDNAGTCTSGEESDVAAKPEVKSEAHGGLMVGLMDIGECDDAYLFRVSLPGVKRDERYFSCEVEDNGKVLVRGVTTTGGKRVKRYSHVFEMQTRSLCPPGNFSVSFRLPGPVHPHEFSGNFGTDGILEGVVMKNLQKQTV
The experiment in a line: affinity purification with mass spectrometry; 6Myc-IDM2 purified from flower extract of transgenic Arabidopsis (idm2-1 background); the methods name IDM2-GFP plants and GFP-Trap A beads; lysis buffer 50 mM Tris pH 8.0, 230 mM NaCl, 0.2% NP-40; 4°C; LC-MS/MS.

The target in assay [3] is T3, IDM1-3HA-YFP (Arabidopsis thaliana) (UniProt F4IXE7).
T3 sequence: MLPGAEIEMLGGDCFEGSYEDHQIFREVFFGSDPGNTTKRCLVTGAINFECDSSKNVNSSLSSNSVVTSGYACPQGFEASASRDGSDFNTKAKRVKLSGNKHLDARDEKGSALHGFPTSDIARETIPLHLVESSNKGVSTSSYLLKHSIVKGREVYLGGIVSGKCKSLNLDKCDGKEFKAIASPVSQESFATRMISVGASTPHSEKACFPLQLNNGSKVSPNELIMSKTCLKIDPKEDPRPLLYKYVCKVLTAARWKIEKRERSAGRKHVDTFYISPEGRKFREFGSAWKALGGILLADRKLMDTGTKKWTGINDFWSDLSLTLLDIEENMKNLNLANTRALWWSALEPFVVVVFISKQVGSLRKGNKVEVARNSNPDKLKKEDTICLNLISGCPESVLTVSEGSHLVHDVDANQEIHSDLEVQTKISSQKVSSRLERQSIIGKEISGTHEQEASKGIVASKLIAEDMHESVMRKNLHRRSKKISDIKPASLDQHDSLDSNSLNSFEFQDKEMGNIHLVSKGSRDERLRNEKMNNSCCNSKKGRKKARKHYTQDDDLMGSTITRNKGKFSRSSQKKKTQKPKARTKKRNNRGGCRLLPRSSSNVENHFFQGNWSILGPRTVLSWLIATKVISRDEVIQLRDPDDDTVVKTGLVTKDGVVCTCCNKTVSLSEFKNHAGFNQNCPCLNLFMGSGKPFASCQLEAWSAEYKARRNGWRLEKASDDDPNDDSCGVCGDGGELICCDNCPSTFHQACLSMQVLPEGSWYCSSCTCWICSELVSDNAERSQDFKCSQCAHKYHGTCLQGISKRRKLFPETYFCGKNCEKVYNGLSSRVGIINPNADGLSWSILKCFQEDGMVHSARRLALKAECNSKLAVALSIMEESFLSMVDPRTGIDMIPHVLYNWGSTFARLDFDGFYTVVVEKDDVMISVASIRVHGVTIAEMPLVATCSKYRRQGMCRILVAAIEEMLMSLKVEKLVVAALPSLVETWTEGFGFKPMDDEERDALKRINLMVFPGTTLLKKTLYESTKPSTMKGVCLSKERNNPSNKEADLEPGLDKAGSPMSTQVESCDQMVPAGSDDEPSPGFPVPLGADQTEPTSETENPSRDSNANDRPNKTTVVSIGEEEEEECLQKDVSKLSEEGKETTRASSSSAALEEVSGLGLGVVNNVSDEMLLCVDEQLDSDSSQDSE
The experiment in a line: affinity purification with mass spectrometry; IDM1-3HA-YFP purified from Arabidopsis flower extract on anti-HA agarose, eluted with HA peptide; lysis buffer 50 mM Tris pH 8.0, 230 mM NaCl, 0.2% NP-40; 4°C; LC-MS/MS.

Results are given in words; binding and its absence hold for the method and conditions named. Binding seen in cells or lysates may run through a third protein. A yes stands for co-enrichment or nearness to the bait. Other partners may have been found. Sequences can lack the tags named with a protein.

B1: His-MBD7 (natural protein, Arabidopsis thaliana, UniProt Q9FJF4 1-306, looked up)
chain: MQTRSSSSPSANHRRETQLQIADPTSFCGKIMPGWTVVNRPRSSNNGVVDTYFIEPGTGRQFSSLEAIHRHLAGEVNDRRLTRAGSFFQDKTRVYEGSRTKQDHCGVEYASKGFRLPRGWSVEEVPRKNSHYIDKYYVERKTGKRFRSLVSVERYLRESRNSIEQQLRVLQNRRGHSKDFRLPDGWIVEEKPRRSSSHIDRSYIEPGTGNKFRSMAAVERYLISVGNITLDSVSMVHSERLPLLMNRNGIRFQSEVIDPNPPKKVKWVLTGSGGNMFTANVRGSNVSSLVKHTWSEAFVSLIEDRS
notes: MBD7, Arabidopsis thaliana, AT5G59800; detected with antibodies against the His6 tag; also called His-tagged MBD7; source: E. coli, purified; not shown: His6, N-terminal, kept
B1: the binding entry in assay [1] and in assay [2] was “binds” in each case.

B2: IDL1 (endogenous) (protein, UniProt Q9SYQ0 1-463)
chain: MSLYSDGLSSDQYFLVNFIMSNYLGPDVYSDNPRCSSSQRLARGLPPYTLMHIGSSSLTVSQLQNLYYNVLRNAKSSLLLHPDMIYMYLKGYLPLEPSGKFPQFTHFFPTNLHPQKRYSPSHEIVKGIVVIDDPAVGFINKEELQRFRCLSRLDDLKIDRVTSLSPRVNLDESRETEQDCSRNGDATANGVVTNEDYNSSGELQETCKRKEGEDAVASCVISEPERLSGDIPESQGMKQDCSRNGESAFSGIVSDQDYYSFVKLPETCKRKNKEEEAVTGHAVSGTSKTPERFRETYKRRRFKNSSKKATNKNGETLMEREKTDKPIPFSSEMKESDAEPSVVTTGTASKETLGSSVGVVDIGVNKVAYFFQVALPGVRKDYGEFSCEIESDGKVILEGSTTRGEKNIKRHSRVFEMNIRKLCPPGPFKLCFNLPGPVDPRLFSPNFRSDGIFEGVIIRHKNS
With B2, the binding entry in assay [3] and in assay [2] was “binds” throughout.

B3: IDM1 (endogenous) (protein, UniProt F4IXE7 1-1189)
chain: MLPGAEIEMLGGDCFEGSYEDHQIFREVFFGSDPGNTTKRCLVTGAINFECDSSKNVNSSLSSNSVVTSGYACPQGFEASASRDGSDFNTKAKRVKLSGNKHLDARDEKGSALHGFPTSDIARETIPLHLVESSNKGVSTSSYLLKHSIVKGREVYLGGIVSGKCKSLNLDKCDGKEFKAIASPVSQESFATRMISVGASTPHSEKACFPLQLNNGSKVSPNELIMSKTCLKIDPKEDPRPLLYKYVCKVLTAARWKIEKRERSAGRKHVDTFYISPEGRKFREFGSAWKALGGILLADRKLMDTGTKKWTGINDFWSDLSLTLLDIEENMKNLNLANTRALWWSALEPFVVVVFISKQVGSLRKGNKVEVARNSNPDKLKKEDTICLNLISGCPESVLTVSEGSHLVHDVDANQEIHSDLEVQTKISSQKVSSRLERQSIIGKEISGTHEQEASKGIVASKLIAEDMHESVMRKNLHRRSKKISDIKPASLDQHDSLDSNSLNSFEFQDKEMGNIHLVSKGSRDERLRNEKMNNSCCNSKKGRKKARKHYTQDDDLMGSTITRNKGKFSRSSQKKKTQKPKARTKKRNNRGGCRLLPRSSSNVENHFFQGNWSILGPRTVLSWLIATKVISRDEVIQLRDPDDDTVVKTGLVTKDGVVCTCCNKTVSLSEFKNHAGFNQNCPCLNLFMGSGKPFASCQLEAWSAEYKARRNGWRLEKASDDDPNDDSCGVCGDGGELICCDNCPSTFHQACLSMQVLPEGSWYCSSCTCWICSELVSDNAERSQDFKCSQCAHKYHGTCLQGISKRRKLFPETYFCGKNCEKVYNGLSSRVGIINPNADGLSWSILKCFQEDGMVHSARRLALKAECNSKLAVALSIMEESFLSMVDPRTGIDMIPHVLYNWGSTFARLDFDGFYTVVVEKDDVMISVASIRVHGVTIAEMPLVATCSKYRRQGMCRILVAAIEEMLMSLKVEKLVVAALPSLVETWTEGFGFKPMDDEERDALKRINLMVFPGTTLLKKTLYESTKPSTMKGVCLSKERNNPSNKEADLEPGLDKAGSPMSTQVESCDQMVPAGSDDEPSPGFPVPLGADQTEPTSETENPSRDSNANDRPNKTTVVSIGEEEEEECLQKDVSKLSEEGKETTRASSSSAALEEVSGLGLGVVNNVSDEMLLCVDEQLDSDSSQDSE
On to B3, for which the binding result in assay [1] and in assay [2] was “binds” in each case.

B4: IDM2 (endogenous) (protein, UniProt Q8RWL4 1-349)
chain: MSDTMPEIVSPLVAENSQEQEESVLISLDIEEDKLFLLHFIIGTYFGPDLRKQHHRPKQSAFQIQALKNVVVDELSGSLMKRAELERVYYHIIRNVDPSLVMKPKKLREYFNAKRNDSNRDYPLFVDLFPRKLHPETHVRHKFKFIRSIVFINDPDTSCMREECVARFKRLTGLDSFALSLSVDVTKSNGVVAANEVKVEIDESVEPVKEDNAGTCTSGEESDVAAKPEVKSEAHGGLMVGLMDIGECDDAYLFRVSLPGVKRDERYFSCEVEDNGKVLVRGVTTTGGKRVKRYSHVFEMQTRSLCPPGNFSVSFRLPGPVHPHEFSGNFGTDGILEGVVMKNLQKQTV
For B4, the binding result in assay [3] and in assay [1] was “binds” in each case.

B5: MBD6 (endogenous) (protein, UniProt Q9LTJ1 1-225)
chain: MSDSVAGDFPPDPLLASGAFISSAGDGTLDSSAKRRPIQGGIGISGSGESVRIGMANGTDQVNHQTESKSRKRAAPGDNWLPPGWRVEDKIRTSGATAGSVDKYYYEPNTGRKFRSRTEVLYYLEHGTSKRGTKKAENTYFNPDHFEGQGSNRVTRTATVPPPPPPPLDFDFKNPPDKVSWSMANAGEEGWIPNIGDVKVQDSVRRDWSTAFTFITSRNPSKVSA
Consider B5, for which the binding entry in assay [3] and in assay [1] was “binds” each time.

The values are drawn from PMC4416881, “Regulation of Active DNA Demethylation by a Methyl-CpG-Binding Domain Protein in Arabidopsis thaliana” (PLoS Genetics, 2015).
